Several values for one entry are separate records, joined by “and”; a condition that tells them apart may be missing. Equal entries are not always repeated. This is one part of the list. Shown are side measurements of this screen, not its main read-out; they come without a call. Most of these compounds were active or inconclusive in the main read-out, so they are no random draw.
Test: qHTS assay for small molecule antagonists of retinoid X receptor alpha signaling (AID 588546);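 note: cells stimulated with 9-cis-retinoic acid as agonist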
Details: HEK293T RXRa-UAS-bla, beta-lactamase ratio, antagonist mode; measured here: W530 green channel, cytotoxicity proxy
In short: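 Beta-lactamase reporter inhibition, read as CCF4 fluorescence ratio (ex 405, em 460/530 nm) after 2 h at RT. HEK293T UAS-bla cells, 2500/well, were stimulated with 9-cis-RA at 500 or 100 nM final alongside test compound for 18 h at 37 C.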
% is set by controls: 0 for no effect and ±100 for the full control effect.

Row | Structure (SMILES) | max response
1 | CC(C)(C)c1cc(O)ccc1O | -52.3%
2 | CCC[CH2][Sn]([CH2]CCC)([CH2]CCC)[O][Sn]([CH2]CCC)([CH2]CCC)[CH2]CCC | -29.2%
3 | CC1(C)[C@H](C(=O)O[C@H](C#N)c2cccc(Oc3ccccc3)c2)[C@@H]1C=C(Br)Br | -17.4%
4 | Oc1ccc(Cl)cc1Sc1cc(Cl)ccc1O | -12%
5 | CCOP(=O)(OCC)Oc1nc(Cl)c(Cl)cc1Cl | 3.51%
6 | Clc1ccc(COC(Cn2ccnc2)c2ccc(Cl)cc2Cl)cc1 (centres undefined) | -24.1%
7 | CCC[CH2][Sn]([Cl])([CH2]CCC)[CH2]CCC | -23.8%
8 | Clc1ccc(C(c2ccc(Cl)cc2)C(Cl)Cl)cc1 | -5.14% and -8.13%
9 | CN1C[C@H](C(=O)N[C@]2(C)O[C@@]3(O)[C@@H]4CCCN4C(=O)[C@H](Cc4ccccc4)N3C2=O)C=C2c3cccc4[nH]cc(c34)C[C@H]21 | -31.5%
10 | CSC1=N[C@@](C)(c2ccccc2)C(=O)N1Nc1ccccc1 | 6.06%
11 | c1ccc2c(c1)-c1cccc3c1c-2cc1ccccc13 | 99.7% and 65.5%
12 | Nc1ccc([N+](=O)[O-])cc1[N+](=O)[O-] | -11.9%
13 | CC(C)OC(=O)C(O)(c1ccc(Br)cc1)c1ccc(Br)cc1 | -50.8%
14 | O=[N+]([O-])c1ccc(Cl)c([N+](=O)[O-])c1 | -39.6%
15 | Nc1c(Br)cc([N+](=O)[O-])cc1[N+](=O)[O-] | 33.1%
16 | Cc1cnc(C2=NC(C)(C(C)C)C(=O)N2)c(C(=O)O)c1 (centres undefined) | -10.2%
17 | CN(C)c1ccc(N=O)cc1 | 46.5%
18 | CC(C)(C)c1ccc(CSc2cnn(C(C)(C)C)c(=O)c2Cl)cc1 | -15.5%
19 | O=[N+]([O-])c1cc(C(F)(F)F)c(Cl)c([N+](=O)[O-])c1Nc1ncc(C(F)(F)F)cc1Cl | -39.4%

Not a retest: an excerpt of the list.
Row | Structure (SMILES) | max response
4 | Oc1ccc(Cl)cc1Sc1cc(Cl)ccc1O | -12%
5 | CCOP(=O)(OCC)Oc1nc(Cl)c(Cl)cc1Cl | 3.51%

— PubChem BioAssay (NCATS)
